These are yes or no findings as the source states them, for the method shown. Some entries that bind do so weakly or less than the wild type.
How the values were obtained:
B2M (human) [1] = molecular target: B2M (human) (UniProt P61769); experiment: REAP, yeast-displayed human antigen library
B2M (human) [2] = molecular target: B2M (human) (UniProt P61769); experiment: BLI, HIS1K sensor, his-tagged antigen immobilised, nanobody-Fc applied
IL10RA = molecular target: T1, IL10RA (human, UniProt Q13651 22-235); experiment: REAP, yeast-displayed human antigen library
T1 construct: Recombinant human protein in ELISA
T1 sequence (looked up): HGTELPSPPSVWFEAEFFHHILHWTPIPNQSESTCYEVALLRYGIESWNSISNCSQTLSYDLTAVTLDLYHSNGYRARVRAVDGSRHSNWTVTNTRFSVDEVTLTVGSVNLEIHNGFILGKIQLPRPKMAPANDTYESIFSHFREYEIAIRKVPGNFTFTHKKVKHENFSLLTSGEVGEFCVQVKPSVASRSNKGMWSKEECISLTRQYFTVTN

Chains of the proteins cited; added tags and fusions are not shown. Lines headed by an entry give the natural chain unless they say otherwise; changes in a name come on top.
UniProt P61769: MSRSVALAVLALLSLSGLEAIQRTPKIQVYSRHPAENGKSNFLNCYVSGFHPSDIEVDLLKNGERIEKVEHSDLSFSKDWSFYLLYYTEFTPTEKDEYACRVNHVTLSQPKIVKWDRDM

IL2RG (human) [3] = molecular target: T2, IL2RG (human) (UniProt P31785); experiment: REAP, yeast-displayed human antigen library
T2 sequence (looked up): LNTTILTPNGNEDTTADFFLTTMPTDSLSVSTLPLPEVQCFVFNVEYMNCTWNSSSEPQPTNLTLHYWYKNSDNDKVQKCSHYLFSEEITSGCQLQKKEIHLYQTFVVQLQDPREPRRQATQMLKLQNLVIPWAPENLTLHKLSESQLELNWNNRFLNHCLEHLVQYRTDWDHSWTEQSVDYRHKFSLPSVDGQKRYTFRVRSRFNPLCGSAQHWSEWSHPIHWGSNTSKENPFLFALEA

IL2RG (human) [4] = molecular target: T2, IL2RG (human); experiment: BLI, HIS1K sensor, his-tagged antigen immobilised, nanobody-Fc applied
LAIR2 = molecular target: T3, LAIR2 (human, UniProt Q6ISS4 22-152); experiment: REAP, yeast-displayed human antigen library
T3 construct: Recombinant human protein in ELISA
T3 sequence (looked up): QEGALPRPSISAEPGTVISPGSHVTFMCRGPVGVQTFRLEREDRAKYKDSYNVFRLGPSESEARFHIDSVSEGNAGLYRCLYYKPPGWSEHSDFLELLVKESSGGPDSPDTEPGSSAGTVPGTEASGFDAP

B1: B2M_Nb3.750 (Fc fusion, not shown: a dimerising Fc or GST)
chain: QVQLQESGGGLVQAGGSLRLSCAASGSISQYDEMGWYRQAPGKERELVAGINAGSSTYYADSVKGRFTISRDNAKNTVYLQMNSLKPEDTAVYYCAASSHTDADYAYWGQGTQVTVSS
binding (B2M (human) [1]): binds | binding (B2M (human) [2]): binds

B2: IL10RA_Nb72 (Fc fusion)
chain: QVQLQESGGGLVQAGGSLRLSCAASGTISSEHAMGWYRQAPGKERELVAGITYGSITNYADSVKGRFTISRDNAKNTVYLQMNSLKPEDTAVYYCAVYYYYRATIYHALGYWGQGTQVTVSS
notes: Nanobody expressed and tested as Fc fusion (human IgG1); not shown: human IgG1 Fc (vector pCER243)
binding (IL10RA): binds

B3: IL2RG_Nb3.454 (Fc fusion, not shown: a dimerising Fc or GST)
chain: QVQLQESGGGLVQAGGSLRLSCAASGSIFAGPAMGWYRQAPGKERELVAGIATGGTTYYADSVKGRFTISRDNAKNTVYLQMNSLKPEDTAVYYCAAGYLLLWEGQDGHDYWGQGTQVTVSS
binding (IL2RG (human) [3]): binds | binding (IL2RG (human) [4]): binds

B4: LAIR2_Nb2.51 (Fc fusion)
chain: QVQLQESGGGLVQAGGSLRLSCAASGSIFYPSAMGWYRQAPGKERELVASIGQGGSTYYADSVKGRFTISRDNAKNTVYLQMNSLKPEDTAVYYCAVQPYSANLHRYWGQGTQVTVSS
notes: as for B2
binding (LAIR2): binds
